Results taken from article PMC7819943, “Rice protein-binding microarrays: a tool to detect cis-acting elements near promoter regions in rice”.
This is one part of the list.

The sequences below were run against T1, OsSMF1 (Oryza sativa, UniProt Q6ZLB0 1-436) (assay: protein-binding microarray (RPBM); PBS, 2% BSA, 51.3 ng/ul salmon testes DNA, 50 uM zinc acetate, 200 nM TF, 25 C, 1 h; high values mean tight binding). Conditions: protein: recombinant; tags: N-terminal polyhistidine and DsRed monomer fusion (pET32a); chain copies: 2; label: CyDye5-dUTP incorporated in the synthesized complementary strand; 3' TTTTT single-stranded linker to array surface; dsDNA, one strand shown.
T1 sequence: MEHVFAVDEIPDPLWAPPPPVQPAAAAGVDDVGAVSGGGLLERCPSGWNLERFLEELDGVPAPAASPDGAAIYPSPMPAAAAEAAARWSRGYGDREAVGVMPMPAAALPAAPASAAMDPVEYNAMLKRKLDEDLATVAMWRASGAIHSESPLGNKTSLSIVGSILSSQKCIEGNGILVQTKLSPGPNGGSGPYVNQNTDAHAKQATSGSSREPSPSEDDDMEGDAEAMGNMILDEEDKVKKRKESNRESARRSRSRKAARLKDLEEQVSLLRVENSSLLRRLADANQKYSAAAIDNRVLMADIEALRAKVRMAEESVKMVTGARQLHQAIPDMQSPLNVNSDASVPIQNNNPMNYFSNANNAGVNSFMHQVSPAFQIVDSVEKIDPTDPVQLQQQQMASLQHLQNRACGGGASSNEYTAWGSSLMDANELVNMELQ
How it was run: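 Using Ni–NTA, transcription factors fused N-terminally to polyhistidine and DsRed were purified after expression in E. coli BL21-CodonPlus. These were incubated at 200 nM with a blocked, double-stranded custom Agilent array for 1 h at 25 °C in a buffer containing 50 µM zinc acetate, and the array was washed. The binding signal is per-feature fluorescence intensity (arbitrary units) on an Axon 4000B scanner.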

Row | Sequence | binding signal
1 | CGCAAGGCTGACGAAATCACGATATGGCATGGTTGGTACGCGGAGTCACCTAGTGCAG | 3760 fluorescence intensity (a.u.)
2 | AACCATTACTATTTGTCATGTCATGTATGCCAAACTTTTCCGGAGTCACCTAGTGCAG | 4290 fluorescence intensity (a.u.)
3 | GTTATAGTTACACCACGTAATCAACAAGACCGGCCTATGCCGGAGTCACCTAGTGCAG | 7620 fluorescence intensity (a.u.)
4 | GTCGCCTGATTGAGCGCTTCATGATCTTGACTTCTCAACTCGGAGTCACCTAGTGCAG | 4560 fluorescence intensity (a.u.)
5 | AAAAGCCCGCGCGCAACGGACGTTTCTCCCGCGCTTTCCTCGGAGTCACCTAGTGCAG | 3540 fluorescence intensity (a.u.)
6 | GTCATGCGGACTGCACTGCGCTGACTCGTTCTTGCTCTTGCGGAGTCACCTAGTGCAG | 5610 fluorescence intensity (a.u.)
7 | GTCACATTCTCAGAGTACAAAGCTCACTGCTCACCACAGCCGGAGTCACCTAGTGCAG | 3170 fluorescence intensity (a.u.)
8 | CAGCCACTGCTCCGCCCAGTCGTGTCATTCGCCCACTAGCCGGAGTCACCTAGTGCAG | 4200 fluorescence intensity (a.u.)
9 | TAGGTCAAACTACCACGTAAGCGTCACGTCGATGCCACGTCGGAGTCACCTAGTGCAG | 23800 fluorescence intensity (a.u.)
10 | TGTTTCTTCCGTTGTTGCAGCGTTGTGACGTGCATGCTTTCGGAGTCACCTAGTGCAG | 7210 fluorescence intensity (a.u.)
11 | CCATGTAAGTGTCACGTCAATGCCACGTGAGACGAAGACCCGGAGTCACCTAGTGCAG | 12500 fluorescence intensity (a.u.)
12 | GAGGATCTCGCCGCCGCTTCGCTCCACGTCCCACCGCCCTCGGAGTCACCTAGTGCAG | 4790 fluorescence intensity (a.u.)
13 | TCATTGGTATCTCAATGACATGTAGGACCTACATGAGTCACGGAGTCACCTAGTGCAG | 8190 fluorescence intensity (a.u.)
14 | TTTACAACCGTCAAGCGCTGACTTGTTCTTCGATCGTCTTCGGAGTCACCTAGTGCAG | 3680 fluorescence intensity (a.u.)
15 | CACCGCAGGATTCCTCTCTTGGGTTGACGGCTGCCACAAGCGGAGTCACCTAGTGCAG | 27500 fluorescence intensity (a.u.)
16 | TGAAACACAGTATATATTGATGAAGTTGCCACGTAGTCCTCGGAGTCACCTAGTGCAG | 10900 fluorescence intensity (a.u.)
17 | GAGCCTAGGTCTTCCGCCGCCGCCGCGCTCCACCGTTGCGCGGAGTCACCTAGTGCAG | 3260 fluorescence intensity (a.u.)
18 | TTTTAATGTTTGTATACATTTAGCGTGATCGGTGAAAATCCGGAGTCACCTAGTGCAG | 17800 fluorescence intensity (a.u.)
19 | CTCCTCTCCTCCCTCCTCGACTTCTCCGCTTTCTCCGCCTCGGAGTCACCTAGTGCAG | 3230 fluorescence intensity (a.u.)
20 | CAGGTTTGCTGTACACTTGTCGCGCCTTGAGGACGCAGTTCGGAGTCACCTAGTGCAG | 3310 fluorescence intensity (a.u.)
21 | TTTCTACACACATAAACTTTCAACTTTTCCATCACATCGTCGGAGTCACCTAGTGCAG | 9580 fluorescence intensity (a.u.)

Row | Sequence | binding signal
22 | TTTAAAGTATTAAATATAGACTAATAATAAAATAAATTGCCGGAGTCACCTAGTGCAG | 16600 fluorescence intensity (a.u.)
23 | GCCCCAGCATCGTCCGCCCCGCCGTCGCCACTGCACCAGCCGGAGTCACCTAGTGCAG | 3150 fluorescence intensity (a.u.)
24 | CTATATTAATTAATGAATTAGCAATTGGATGTACCAATTTCGGAGTCACCTAGTGCAG | 41000 fluorescence intensity (a.u.)
25 | AGCAGCGGGCTACAGATTTATAGCCAGCTGTAGCACGGATCGGAGTCACCTAGTGCAG | 33200 fluorescence intensity (a.u.)
26 | GGGAGGAAGAGGAATGAGCTATCTGTCAGCAGAGAACCTTCGGAGTCACCTAGTGCAG | 3540 fluorescence intensity (a.u.)
27 | AATAGATTTTGAAGAGATGTGACACGTTACAGTACTACGACGGAGTCACCTAGTGCAG | 4980 fluorescence intensity (a.u.)
28 | TGGCGTGACCAGATTGATGACATACTGGCCAAGATATGGTCGGAGTCACCTAGTGCAG | 3740 fluorescence intensity (a.u.)
29 | AAATTAAATTGTTGACCGAAACCTAAGCTGGCATTTAATACGGAGTCACCTAGTGCAG | 3820 fluorescence intensity (a.u.)
30 | TTTTACTTTCAATAATTGCCATGACACCTACACCCGGAGGCGGAGTCACCTAGTGCAG | 3860 fluorescence intensity (a.u.)
31 | CATGATTTATTTGATAAGCTAGGGGCGCCACGTGGCCCAACGGAGTCACCTAGTGCAG | 19100 fluorescence intensity (a.u.)
32 | CGGCTGATCAGAGTGACGTCATTGGTGTTGGTGGTATTGACGGAGTCACCTAGTGCAG | 11400 fluorescence intensity (a.u.)
33 | TTAATTTCTCTGCACACTCAAAACAGGGAGACACGTCAAACGGAGTCACCTAGTGCAG | 3980 fluorescence intensity (a.u.)
34 | TGGACGTCGTGTGCTCGTGCAAACACACGTGGTCGCCAGCCGGAGTCACCTAGTGCAG | 7750 fluorescence intensity (a.u.)
35 | TGACGTGTCATTGACATGGTGCTTACGTGGCAATTCGAAACGGAGTCACCTAGTGCAG | 30200 fluorescence intensity (a.u.)
36 | GCCTGGCTCATCGGTTACCCTTTCTCACCGACTGTACTACCGGAGTCACCTAGTGCAG | 3170 fluorescence intensity (a.u.)
37 | TCGCGCTCTCGCCGCCGCCCGTGCCCAGCAACCGCGCGTCCGGAGTCACCTAGTGCAG | 10400 fluorescence intensity (a.u.)
38 | GGCTGGTCCACGTGAGCCGCATGCGCCACGTATCACGCGACGGAGTCACCTAGTGCAG | 5940 fluorescence intensity (a.u.)
39 | CATCATCGAGACGAAGCAGCGGGCGCTGCTGGTGACGTCGCGGAGTCACCTAGTGCAG | 4350 fluorescence intensity (a.u.)
40 | GCAAACTAGCTTCTAGCTTCTTCTTCTTGTCCTCCAAGCTCGGAGTCACCTAGTGCAG | 35000 fluorescence intensity (a.u.)
41 | ATATGTGTGTTTGACACGTGGAGCAGAGCAGAGGAGTTTGCGGAGTCACCTAGTGCAG | 9620 fluorescence intensity (a.u.)
42 | GTGCCATCTTATTATTTATAATTTATAGTACCACCTTATTCGGAGTCACCTAGTGCAG | 3960 fluorescence intensity (a.u.)

Two entries from above, with each value named:
TGACGTGTCATTGACATGGTGCTTACGTGGCAATTCGAAACGGAGTCACCTAGTGCAG
  binding signal: 30200 fluorescence intensity (a.u.)
GCCTGGCTCATCGGTTACCCTTTCTCACCGACTGTACTACCGGAGTCACCTAGTGCAG
  binding signal: 3170 fluorescence intensity (a.u.)
